Reference: publication PMC8633803
Results are given in words; binding and its absence hold for the method and conditions named. In cells and extracts the contact can be indirect. For some assays here: Binding calls can cover weak binding; strength is not graded here. Tags and fused reporters may be left off the sequences shown.

Assays:
[1] = biological target: T1, FLAG-tagged human R15B 1–340 (human) (UniProt Q5SWA1); experiment: co-IP; FLAG-R15 constructs transfected into HEK 293T; lysates (50 mM Tris-HCl pH 7.4, 10 mM NaCl, 100 mM KCl, 0.1 µM CaCl2, 0.5 mM MgCl2, 0.5 mM TCEP) incubated overnight at 4°C with anti-FLAG M2 magnetic beads, washed three times, eluted by boiling in LDS; immunoblots for endogenous P-eIF2α, total eIF2α, PP1, actin
T1 sequence: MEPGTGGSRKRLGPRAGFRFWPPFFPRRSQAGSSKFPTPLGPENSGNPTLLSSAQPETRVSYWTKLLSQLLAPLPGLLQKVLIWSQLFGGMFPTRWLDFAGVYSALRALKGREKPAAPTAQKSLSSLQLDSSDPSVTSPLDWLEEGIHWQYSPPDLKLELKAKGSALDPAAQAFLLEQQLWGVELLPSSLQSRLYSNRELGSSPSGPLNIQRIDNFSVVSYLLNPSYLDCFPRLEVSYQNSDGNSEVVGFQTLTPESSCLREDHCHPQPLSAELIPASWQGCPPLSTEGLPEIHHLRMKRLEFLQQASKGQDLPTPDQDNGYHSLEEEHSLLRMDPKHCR

[2] = biological target: T2, FLAG-tagged human R15B 639–713 (human) (UniProt Q5SWA1); experiment: as above
T2 sequence: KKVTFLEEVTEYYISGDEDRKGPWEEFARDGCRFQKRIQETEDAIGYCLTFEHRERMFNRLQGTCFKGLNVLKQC

## PP1 (catalytic subunit of protein phosphatase 1) (human (endogenous in HEK 293T)) (enzyme)
[1]
  binding: no binding
[2]
  binding: binds
